These are yes or no findings as the source states them, for the method shown. Binding seen in cells or lysates may run through a third protein. Here binding means that the protein was enriched with, or labelled near, the bait; the list need not be complete. Tags and fused reporters may be left off the sequences shown.
Legend:
[1] = target: T1, C-terminal VA (3xFLAG-2xTEV-6xHIS-StrepIII-Beacon) tagged ERG (human) (UniProt P11308); test: affinity purification with mass spectrometry; lysates of VCaP cells stably expressing VA-tagged ERG or GFP; anti-Flag M2 antibody on Protein G Dynabeads, 2 h at 4 °C; TBS (30 mM Tris-HCl pH 7.5, 150 mM NaCl) with 0.5% Nonidet P40; on-bead trypsin digest, Orbitrap Velos
T1 sequence: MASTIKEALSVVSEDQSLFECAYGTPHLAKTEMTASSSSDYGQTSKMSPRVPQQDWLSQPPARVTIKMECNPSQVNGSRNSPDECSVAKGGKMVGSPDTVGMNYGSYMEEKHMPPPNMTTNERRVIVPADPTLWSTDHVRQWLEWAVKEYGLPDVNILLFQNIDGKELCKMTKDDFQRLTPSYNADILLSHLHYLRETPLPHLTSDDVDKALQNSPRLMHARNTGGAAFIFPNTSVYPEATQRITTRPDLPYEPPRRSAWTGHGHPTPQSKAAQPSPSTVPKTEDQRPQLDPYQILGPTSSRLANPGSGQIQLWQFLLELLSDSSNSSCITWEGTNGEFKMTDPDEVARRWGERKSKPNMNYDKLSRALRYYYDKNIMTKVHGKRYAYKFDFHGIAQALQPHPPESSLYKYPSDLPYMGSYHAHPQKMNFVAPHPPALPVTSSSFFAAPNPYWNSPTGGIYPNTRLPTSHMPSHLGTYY

By UniProt entry, the sequences of proteins in these tests, tags left out.
UniProt Q7KZF4: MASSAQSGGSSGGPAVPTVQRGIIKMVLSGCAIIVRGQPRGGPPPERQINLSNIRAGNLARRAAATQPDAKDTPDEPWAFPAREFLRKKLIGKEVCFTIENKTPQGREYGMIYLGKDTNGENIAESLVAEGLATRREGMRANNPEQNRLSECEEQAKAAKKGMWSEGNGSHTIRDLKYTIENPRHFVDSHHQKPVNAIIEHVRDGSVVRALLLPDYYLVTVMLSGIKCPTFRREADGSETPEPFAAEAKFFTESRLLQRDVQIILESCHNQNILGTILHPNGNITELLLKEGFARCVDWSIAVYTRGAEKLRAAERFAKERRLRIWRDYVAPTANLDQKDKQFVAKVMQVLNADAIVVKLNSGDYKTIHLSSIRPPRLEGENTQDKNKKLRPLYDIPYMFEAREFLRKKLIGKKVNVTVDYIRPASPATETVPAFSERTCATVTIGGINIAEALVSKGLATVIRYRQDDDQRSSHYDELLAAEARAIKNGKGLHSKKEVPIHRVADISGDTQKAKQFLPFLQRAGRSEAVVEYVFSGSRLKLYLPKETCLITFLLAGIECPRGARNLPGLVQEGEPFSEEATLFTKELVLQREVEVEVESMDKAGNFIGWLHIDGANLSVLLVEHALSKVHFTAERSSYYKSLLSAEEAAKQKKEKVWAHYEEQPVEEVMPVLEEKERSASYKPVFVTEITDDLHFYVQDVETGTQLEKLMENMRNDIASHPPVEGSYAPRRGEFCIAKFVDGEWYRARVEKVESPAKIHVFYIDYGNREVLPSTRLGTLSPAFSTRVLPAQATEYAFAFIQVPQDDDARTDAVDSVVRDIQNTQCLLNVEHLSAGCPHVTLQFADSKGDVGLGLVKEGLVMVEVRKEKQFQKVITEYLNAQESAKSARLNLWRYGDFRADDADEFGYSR

[2] = target: T2, N-terminal VA (3xFLAG-2xTEV-6xHIS-StrepIII-Beacon) tagged ERG (human) (UniProt P11308); test: as above
T2 sequence: T1 sequence

binding [1]: binds
binding [2]: binds
Substance: SND1 (endogenous, VCaP cells) (from UniProt Q7KZF4 1-910)

— PMC10654515
